Experimental data published in the supplement of paper PMC10689618.
Structures can show the parent of a compound that is named as a salt. Some of the results follow. Single values are uncertain, as repeats are few or missing.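 Labelled rat cortical synaptosomes were engulfed by primary human fetal astrocytes. Engulfment equaled a red/green ratio, corrected for calcein live-cell signal and normalized to the plate median. Compounds were toxic when calcein dropped over 30%, and reduced phagocytosis when below 70% of the median above 5 µM.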

Legend:
Settings in all cases: 24 h
[1] = system: Human fetal astrocytes; assay: loss of total cells relative to no-compound high-control median (toxicity); higher = more toxic (fewer cells)
[2] = system: Human fetal astrocytes; assay: as above; remark: listed apart in the source
[3] = system: Human fetal astrocytes; assay: synaptosome phagocytosis (pHrodo/calcein intensity ratio) relative to plate median of data wells; higher = more phagocytosis
[4] = system: Human fetal astrocytes; assay: as above; remark: listed apart in the source

SMILES	loss of total cells ([1]; 1.39 µM)	loss of total cells ([1]; 2.78 µM)	loss of total cells ([1]; 5.56 µM)	loss of total cells ([1]; 11.11 µM)	loss of total cells ([1]; 22.22 µM)	loss of total cells ([2]; 1.39 µM)	loss of total cells ([2]; 2.78 µM)	loss of total cells ([2]; 5.56 µM)	loss of total cells ([2]; 11.11 µM)	loss of total cells ([2]; 22.22 µM)	synaptosome phagocytosis ([3]; 1.39 µM)	synaptosome phagocytosis ([3]; 2.78 µM)	synaptosome phagocytosis ([3]; 5.56 µM)	synaptosome phagocytosis ([3]; 11.11 µM)	synaptosome phagocytosis ([3]; 22.22 µM)	synaptosome phagocytosis ([4]; 1.39 µM)	synaptosome phagocytosis ([4]; 2.78 µM)	synaptosome phagocytosis ([4]; 5.56 µM)	synaptosome phagocytosis ([4]; 11.11 µM)	synaptosome phagocytosis ([4]; 22.22 µM)
COc1ccc(CN(CCN(C)C)c2ccccn2)cc1 [Pyrilamine maleate]	-8.1%	4.1%	-20.2%	-1%	-4.7%	4.5%	-24.1%	-9.1%	4.3%	-4%	105%	128%	101%	110%	140%	107%	115%	77.7%	131%	122%
CN1C(C(=O)Nc2ccccn2)=C(O)c2ccccc2S1(=O)=O [Piroxicam]	-14.7%	11.3%	15.5%	6.7%	-1.9%	2.1%	-16.6%	-0.7%	-15.3%	-12.5%	79.9%	93.5%	114%	105%	95.8%	89.3%	85.3%	79.5%	94.4%	99.2%
Cc1ccccc1C(OCCN(C)C)c1ccccc1 (stereo not given) [Orphenadrine hydrochloride]	-15.6%	-10.4%	-0.5%	-2.9%	-6.5%	14.9%	3.4%	18.9%	-7%	7.9%	107%	86.6%	96.2%	111%	93.9%	102%	96.6%	97.8%	101%	89.8%
CCN(CC)CCNC(=O)c1cc(Cl)c(N)cc1OC [Metoclopramide hydrochloride]	-11.8%	-8.6%	8%	12.4%	18.7%	-15.8%	-8.8%	-4.5%	-2.3%	0%	84.5%	79.5%	89.9%	101%	78.6%	116%	131%	87.4%	96.8%	103%
CC[N+](CC)(CC)CCOc1cccc(OCC[N+](CC)(CC)CC)c1OCC[N+](CC)(CC)CC [Gallamine triethiodide]	-8.8%	-9.4%	10.7%	-8.5%	1.6%	-3.3%	-29.5%	-15.3%	7.8%	-9.4%	122%	111%	89.5%	126%	89.7%	120%	111%	130%	120%	99.1%
Cc1cccc(C)c1OCC(C)N (stereo not given) [Mexiletene hydrochloride]	-22.3%	-5.9%	17.4%	37.1%	22.4%	-36.3%	15.9%	-17.4%	48.9%	7.8%	113%	149%	79.4%	122%	102%	106%	95.9%	114%	112%	102%
CCCCNc1ccc(C(=O)OCCN(C)C)cc1 [Tetracaine hydrochloride]	0.3%	-21.9%	1.1%	9.6%	-0.8%	-9.2%	-24.7%	11.1%	2.6%	7.6%	75.6%	87.4%	67.3%	91.3%	82.4%	110%	89.6%	94.9%	88.7%	76.5%
CCC1(c2ccccc2)C(=O)NCNC1=O [Primidone]	-18.3%	-41.6%	-1.7%	-24.1%	-14.8%	-2.1%	-14.6%	-13.2%	7.2%	31.3%	117%	109%	77.4%	100%	145%	113%	109%	88.2%	88.9%	76.6%
CCOC(=O)c1ncn2c1CN(C)C(=O)c1cc(F)ccc1-2 [Flumazenil]	-0.4%	-6.8%	-2.5%	-15.7%	-8%	-37.1%	19.8%	5%	31.8%	30.2%	77.1%	185%	124%	154%	142%	88.2%	104%	97.5%	122%	125%
O=C(O)CCc1nc(-c2ccccc2)c(-c2ccccc2)o1 [Oxaprozin]	-28.9%	13.1%	8%	11.4%	4.7%	-25.8%	-13.5%	-1.2%	47.5%	-4%	122%	106%	96.7%	121%	88.2%	95.1%	118%	109%	100%	89.3%
CN1CCN(C2=Nc3cc(Cl)ccc3Nc3ccccc32)CC1 [Clozapine]	-18.3%	-15.6%	-17.1%	-5.8%	20.7%	9.2%	-9.8%	-3.5%	3.7%	-17.3%	103%	106%	82.7%	71.7%	63.4%	112%	93.7%	108%	98.6%	84.2%
Cc1c(OCC(F)(F)F)ccnc1C[S+]([O-])c1nc2ccccc2[nH]1 (stereo not given) [Lansoprazole]	-13.7%	0.5%	8%	18.1%	3.7%	-50.8%	17.5%	3.7%	50.8%	10.9%	75.9%	124%	78.5%	113%	110%	128%	78.3%	93.4%	121%	76.6%
CN1CCC[C@H]1c1cccnc1 [(-)-Nicotine hydrogen tartrate salt]	-20.4%	-26.7%	-12.7%	-12.4%	-1.9%	14.9%	11.3%	-8.4%	38.1%	23.3%	126%	79.6%	79.7%	111%	146%	112%	125%	86.8%	98.1%	112%
Nc1c2c(nc3ccccc13)CCCC2 [9-Amino-1,2,3,4-tetrahydroacridine hydrochloride]	-22.4%	-17.7%	-17.1%	-13.9%	10.2%	12.7%	10%	-9.9%	48.4%	13%	94.2%	74.8%	83.9%	107%	63.3%	97.7%	112%	96.6%	87%	120%
O=C(O)/C=C/c1ccc(O)c(O)c1 [Caffeic Acid]	-28.3%	-19.5%	-18%	-14.8%	-1.1%	-27%	-7.6%	-3.7%	-3.4%	-17%	101%	100%	113%	104%	87.5%	116%	92.6%	104%	94.7%	110%
O=c1c(-c2ccc(O)cc2)coc2cc(O)cc(O)c12 [Genistein]	12.1%	-2.6%	11.5%	-4%	11.2%	-6.9%	-5.3%	30.5%	-14.2%	-1.9%	94.3%	89.2%	137%	73.7%	112%	111%	92.3%	121%	99.8%	84.2%
CC(=O)OCC1=C(C(=O)O)N2C(=O)[C@@H](NC(=O)CSc3ccncc3)[C@H]2SC1 [Cephapirin sodium]	-18%	-18.3%	2.3%	-18.4%	-3.4%	-28.2%	7%	-3.9%	-43%	-8.5%	92.7%	91.4%	76.8%	154%	115%	97.7%	93%	106%	96%	89.5%
CN(C)CCCN1c2ccccc2CCc2ccccc21 [Imipramine hydrochloride]	-8.1%	4.1%	12.7%	13.3%	21.5%	-5.6%	-3.1%	-4.9%	20.5%	-7.6%	83.5%	80.3%	93.5%	71.3%	58.9%	93.9%	84.7%	53.2%	78.2%	83.8%
O=C(C1CCCCC1)N1CC(=O)N2CCc3ccccc3C2C1 (stereo not given) [Praziquantel]	-27%	-8.6%	8.9%	18.1%	11.2%	3.3%	5.8%	-16.7%	-3.7%	1.5%	88.5%	98.6%	94.8%	115%	114%	100%	115%	102%	97.9%	88.4%
O=C1CCC(N2C(=O)c3ccccc3C2=O)C(=O)N1 (racemic) [(±)-Thalidomide]	-14.6%	-20.1%	-13.5%	6.5%	1.6%	-43.5%	-13.5%	20.5%	25.2%	20.2%	106%	123%	126%	104%	138%	126%	125%	116%	110%	106%
COC(=O)C1=C(C)NC(C)=C(C(=O)OCCN(C)Cc2ccccc2)C1c1cccc([N+](=O)[O-])c1 (stereo not given) [Nicardipine hydrochloride]	-20.4%	0.5%	-6.1%	-10.5%	0.9%	-19.9%	-14.9%	0.3%	-14.1%	-1.1%	70.6%	53.2%	91.5%	66.1%	53.4%	77.1%	95.1%	103%	87.3%	47.3%
CCCCCN(CCCCC)C(=O)C(CCC(=O)O)NC(=O)c1ccc(Cl)c(Cl)c1 (stereo not given) [Lorglumide sodium]	-14.7%	16.7%	-4.2%	1%	7.5%	19.9%	6.1%	20.3%	3.8%	15.2%	114%	92.8%	116%	113%	119%	110%	126%	109%	119%	83%
CCOC(=O)C(C)(C)Oc1ccc(Cl)cc1 [Clofibrate]	-12.1%	-26.2%	-13.4%	-7.6%	-3.4%	-25%	-23%	-6.2%	1.6%	2.8%	104%	96.9%	116%	84.1%	118%	102%	84.7%	84.3%	141%	105%
OCCN1CCN(CCCN2c3ccccc3Sc3ccc(Cl)cc32)CC1 [Perphenazine]	-6.2%	0.5%	-12.7%	13.3%	10.3%	-15.3%	34.1%	6.8%	43%	32.1%	93.8%	123%	107%	74.1%	44.8%	91.1%	73.7%	95.1%	86.6%	38.3%
COc1ccc(Cl)cc1C(=O)NCCc1ccc(S(=O)(=O)NC(=O)NC2CCCCC2)cc1 [Glibenclamide]	-4.6%	-25.6%	0.8%	-20.2%	6.4%	-9.8%	8.6%	-8.4%	33.5%	4.8%	121%	121%	80.6%	144%	105%	92.6%	134%	120%	104%	139%
Cc1scc2c1N(C(=O)CN1CCN(C)CC1)c1ccccc1NC2=O [Telenzepine dihydrochloride]	-22%	-36.8%	-1.1%	12.6%	0.8%	6.1%	25.6%	13.8%	5.4%	15.9%	83.9%	159%	94.8%	104%	166%	98.7%	85.5%	95.6%	103%	89.7%

Whole records from above. Order of values: loss of total cells ([1]; 1.39 µM)	loss of total cells ([1]; 2.78 µM)	loss of total cells ([1]; 5.56 µM)	loss of total cells ([1]; 11.11 µM)	loss of total cells ([1]; 22.22 µM)	loss of total cells ([2]; 1.39 µM)	loss of total cells ([2]; 2.78 µM)	loss of total cells ([2]; 5.56 µM)	loss of total cells ([2]; 11.11 µM)	loss of total cells ([2]; 22.22 µM)	synaptosome phagocytosis ([3]; 1.39 µM)	synaptosome phagocytosis ([3]; 2.78 µM)	synaptosome phagocytosis ([3]; 5.56 µM)	synaptosome phagocytosis ([3]; 11.11 µM)	synaptosome phagocytosis ([3]; 22.22 µM)	synaptosome phagocytosis ([4]; 1.39 µM)	synaptosome phagocytosis ([4]; 2.78 µM)	synaptosome phagocytosis ([4]; 5.56 µM)	synaptosome phagocytosis ([4]; 11.11 µM)	synaptosome phagocytosis ([4]; 22.22 µM)
`CN1CCC[C@H]1c1cccnc1` [(-)-Nicotine hydrogen tartrate salt] is entered as -20.4%	-26.7%	-12.7%	-12.4%	-1.9%	14.9%	11.3%	-8.4%	38.1%	23.3%	126%	79.6%	79.7%	111%	146%	112%	125%	86.8%	98.1%	112%
`CCN(CC)CCNC(=O)c1cc(Cl)c(N)cc1OC` [Metoclopramide hydrochloride] is entered as -11.8%	-8.6%	8%	12.4%	18.7%	-15.8%	-8.8%	-4.5%	-2.3%	0%	84.5%	79.5%	89.9%	101%	78.6%	116%	131%	87.4%	96.8%	103%
